Publication PMC10828200
Results are given in words; binding and its absence hold for the method and conditions named. In cells and extracts the contact can be indirect. Some results given as binding are weak or reduced against the parent protein; the word gives no strength. Where a sequence is shown, tags or fusion partners need not be part of it. Blank lines part the entries; values can stand above or below the binder they belong to.

Legend:
[1] = target: T1, UBP14-cYFP (UBIQUITIN-SPECIFIC PROTEASE14 fused to the C-terminal fluorescent protein fragment) (Arabidopsis thaliana) (UniProt Q8L6Y1); experiment: split reporter; BiFC; constructs transiently coexpressed in Arabidopsis leaf mesophyll protoplasts, 12 to 16 h; YFP fluorescence by confocal microscopy
T1 sequence: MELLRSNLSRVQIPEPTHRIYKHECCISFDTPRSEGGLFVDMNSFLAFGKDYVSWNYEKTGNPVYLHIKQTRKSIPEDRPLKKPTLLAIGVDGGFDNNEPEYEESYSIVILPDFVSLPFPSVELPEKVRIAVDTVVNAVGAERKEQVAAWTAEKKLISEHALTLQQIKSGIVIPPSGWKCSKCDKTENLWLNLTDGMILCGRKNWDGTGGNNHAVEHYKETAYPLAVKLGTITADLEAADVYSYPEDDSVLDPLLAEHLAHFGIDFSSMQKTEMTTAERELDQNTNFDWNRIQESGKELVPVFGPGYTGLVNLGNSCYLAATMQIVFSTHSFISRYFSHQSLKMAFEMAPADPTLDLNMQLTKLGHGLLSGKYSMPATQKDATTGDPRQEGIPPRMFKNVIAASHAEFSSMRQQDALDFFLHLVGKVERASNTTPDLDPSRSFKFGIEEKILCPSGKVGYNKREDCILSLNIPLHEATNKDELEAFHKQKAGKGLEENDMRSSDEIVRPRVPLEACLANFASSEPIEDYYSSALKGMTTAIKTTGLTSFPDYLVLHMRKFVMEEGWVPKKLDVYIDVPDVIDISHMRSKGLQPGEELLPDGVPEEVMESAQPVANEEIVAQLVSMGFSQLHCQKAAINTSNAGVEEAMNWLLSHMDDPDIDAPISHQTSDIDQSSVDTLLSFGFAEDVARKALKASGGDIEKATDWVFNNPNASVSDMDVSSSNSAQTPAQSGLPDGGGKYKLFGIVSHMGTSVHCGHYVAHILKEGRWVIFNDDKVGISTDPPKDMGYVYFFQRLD

[2] = target: T2, GST-UBP14 (Arabidopsis thaliana) (UniProt Q8L6Y1); experiment: pull-down; GST pull-down; GST-UBP14 and His-MAC3A/B from sonicated E. coli BL21 (DE3) incubated with glutathione sepharose beads at 4°C for 1 h in TGH buffer (50 mM HEPES pH 7.5, 150 mM NaCl, 1% Triton X-100); immunoblot with anti-His and anti-GST
T2 sequence: T1 sequence

[3] = target: T3, UBP14-GFP (Arabidopsis thaliana) (UniProt Q8L6Y1); experiment: co-IP; transient coexpression in N. benthamiana leaves; total proteins incubated with GFP-Trap-A agarose beads 3 h at 4°C; wash 250 mM NaCl, 0.1% NP-40; immunoblot with anti-GFP and anti-HA
T3 sequence: T1 sequence

B2: His-MAC3B (protein, UniProt O22785 1-525)
chain: MNCAISGEVPVEPVVSTKSGLLFERRLIERHISDYGKCPVTGEPLTIDDIVPIKTGEIIKPKTLHTASIPGLLGTFQNEWDGLMLSNFALEQQLHTARQELSHALYQHDSACRVIARLKKERDEARQLLAEVERHIPAAPEAVTANAALSNGKRAAVDEELGPDAKKLCPGISAEIITELTDCNAALSQKRKKRQIPQTLASIDTLERFTQLSSHPLHKTNKPGICSMDILHSKDVIATGGVDATAVLFDRPSGQILSTLTGHSKKVTSVKFVGDSDLVLTASADKTVRIWRNPGDGNYACGYTLNDHSAEVRAVTVHPTNKYFVSASLDGTWCFYDLSSGSCLAQVSDDSKNVDYTAAAFHPDGLILGTGTSQSVVKIWDVKSQANVAKFDGHTGEVTAISFSENGYFLATAAEDGVRLWDLRKLRNFKSFLSADANSVEFDPSGSYLGIAASDIKVYQTASVKAEWNLIKTLPDLSGTGKATCVKFGSDAQYVAVGSMDRNLRIFGLPGDEKANVDDDSAQDS
- binding [2]: binds

B5: His-MAC3A (protein, UniProt Q94BR4 1-523)
chain: MNCAISGEVPEEPVVSKKSGLLYEKRLIQTHISDYGKCPVTGEPHTLDDIVPIKTGKIVKPKPLHTASIPGLLGTFQTEWDSLMLSNFALEQQLHTARQELSHALYQHDAACRVIARLKKERDESRQLLAEAERQLPAAPEVATSNAALSNGKRGIDDGEQGPNAKKMRLGISAEVITELTDCNAALSQQRKKRQIPKTLASVDALEKFTQLSSHPLHKTNKPGIFSMDILHSKDVIATGGIDTTAVLFDRPSGQILSTLTGHSKKVTSIKFVGDTDLVLTASSDKTVRIWGCSEDGNYTSRHTLKDHSAEVRAVTVHATNKYFVSASLDSTWCFYDLSSGLCLAQVTDASENDVNYTAAAFHPDGLILGTGTAQSIVKIWDVKSQANVAKFGGHNGEITSISFSENGYFLATAALDGVRLWDLRKLKNFRTFDFPDANSVEFDHSGSYLGIAASDIRVFQAASVKAEWNPIKTLPDLSGTGKATSVKFGLDSKYIAVGSMDRNLRIFGLPDDDNTEDSAQDS
- binding [2]: binds

B6: MAC3A-HA (protein, UniProt Q94BR4 1-523)
chain: B5 chain
- binding [3]: binds

Next, values leading:

- binding [1]: binds
B1: MAC3B-nYFP (MOS4-ASSOCIATED COMPLEX 3B fused to the N-terminal fragment of yellow fluorescent protein) (protein, UniProt O22785 1-525)
chain: B2 chain

- binding [3]: binds
B3: MAC3B-HA (protein, UniProt O22785 1-525)
chain: B2 chain

- binding [1]: binds
B4: MAC3A-nYFP (MOS4-ASSOCIATED COMPLEX 3A fused to the N-terminal fragment of yellow fluorescent protein) (protein, UniProt Q94BR4 1-523)
chain: B5 chain
